# Measurements taken from PubChem BioAssay AID328 (DTP/NCI, 2004).
# The list is a part of this screen's results and no random one: it is rich in T/C values a quarter to a half above the control, in often repeated tests (any T/C) and in doses without a T/C. Further doses and runs are listed elsewhere. T/C: endpoint of the treated group in % of that of the vehicle group. Some doses have a count of surviving animals in place of a T/C: the source files T/C as zero there, which appears to mark a toxic dose or a test without result, not a measured value. Some doses without a T/C left all or most animals alive at the check, yet need not have been tolerated: the source hardly ever lists a survival T/C far under the control, and the zero likely stands for such cases as well. Survivors were counted at the toxicity check, usually on the fifth day, unless a day is given; later deaths do not show. Schedule codes are those of the source, taken here to give the interval after Q, in days (D) or hours (H), and the number of doses after X. Where survival is the endpoint, this PubChem deposit counts one and a half times the control or more as active, and values a quarter to a half above the control carry no call in these data; other NCI protocols may use other cut-offs. Some T/C values carry the count of animals alive at the toxicity check (mostly the fifth day); where none is given, no animal had died by that day.
# Test system: BDF1 mice, P388 leukemia ip, median survival T/C
# Assay: NCI In Vivo Anticancer Drug Screen. Data for tumor model P388 Leukemia (intraperitoneal) in B6D2F1 (BDF1) mice
# Details: T/C endpoint: median survival time, higher T/C = longer survival
# How it was run: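 In tumour-bearing mice, survival after compound treatment is set against the vehicle group and given as a quotient.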
# [1] = dose: 50.0 mg/kg/injection, schedule: Q01DX009 (ip), vehicle: saline
# [2] = dose: 200.0 mg/kg/injection, schedule: Q01DX009 (ip), vehicle: Klucel (hydroxypropylcellulose) (HPC)
# [3] = dose: 200.0 mg/kg/injection, schedule: Q01DX001 (ip), vehicle: saline with Tween-80
# [4] = dose: 50.0 mg/kg/injection, schedule: Q01DX009 (ip), vehicle: saline with Tween-80
# [5] = dose: 100.0 mg/kg/injection, schedule: Q01DX009 (ip), vehicle: Klucel (hydroxypropylcellulose) (HPC)
# [6] = dose: 200.0 mg/kg/injection, schedule: Q04DX003 (ip), vehicle: Klucel (hydroxypropylcellulose) (HPC)
# [7] = dose: 400.0 mg/kg/injection, schedule: Q04DX003 (ip), vehicle: Klucel (hydroxypropylcellulose) (HPC)
# [8] = dose: 6.25 mg/kg/injection, schedule: Q01DX009 (ip), vehicle: saline
# [9] = dose: 12.5 mg/kg/injection, schedule: Q01DX009 (ip), vehicle: saline
# [10] = dose: 25.0 mg/kg/injection, schedule: Q01DX009 (ip), vehicle: saline
# [11] = dose: 0.45 mg/kg/injection, schedule: Q01DX009 (ip), vehicle: saline
compound,measurement,setting,value
COc1cc(NCCCC(C)N)c2ncccc2c1OC (centres undefined),survivor count,[1],5 of 6
same,survivor count,"dose: 100.0 mg/kg/injection, schedule: Q01DX009 (ip), vehicle: saline",0 of 6
same,survivor count,"dose: 200.0 mg/kg/injection, schedule: Q01DX009 (ip), vehicle: saline",0 of 6
O=C(O)Cc1ccc(C2CCCCC2)cc1,survivor count,[2],4 of 6
CC(C)(C)[Si](OC(=O)N(CCCl)CCCl)(c1ccccc1)c1ccccc1,T/C,[3],148 % of control
same,survivor count,[3],5 of 6
same,survivor count,"dose: 400.0 mg/kg/injection, schedule: Q01DX001 (ip), vehicle: saline with Tween-80",2 of 6
Cc1c([C@H](C)[C@@H]2NC[C@@H](C)C[C@H]2O)ccc2c1C[C@H]1[C@H]2CC=C2C[C@@H](O)CC[C@@]21C,T/C,"dose: 6.0 mg/kg/injection, schedule: Q01DX010 (ip), vehicle: carboxymethylcellulose (CMC)",130 % of control [5 of 6 alive]
same,survivor count,"dose: 12.0 mg/kg/injection, schedule: Q01DX010 (ip), vehicle: carboxymethylcellulose (CMC)",0 of 6
c1ccc(CCN2COc3c(ccc4cccnc34)C2)cc1,survivor count,"dose: 200.0 mg/kg/injection, schedule: Q04DX003 (ip), vehicle: saline with Tween-80",5 of 6
same,survivor count,"dose: 400.0 mg/kg/injection, schedule: Q04DX003 (ip), vehicle: saline with Tween-80",0 of 6
O=C(Nc1ncn[nH]1)C(=O)Nc1ncn[nH]1,survivor count,[4],6 of 6
C[n+]1c(-c2ccc(Cl)cc2Cl)c2cc([N+](=O)[O-])ccc2c2ccccc21,T/C,"dose: 12.5 mg/kg/injection, schedule: Q01DX009 (ip), vehicle: water",129 % of control
same,survivor count,"dose: 50.0 mg/kg/injection, schedule: Q01DX009 (ip), vehicle: water",5 of 6
CC(C)CCCC(C)C1CCC2C3CC=C4CC(O)CCC4(C)C3CCC12C (centres undefined) (tested in a mixture with another compound),survivor count,"dose: 335.0 mg/kg/injection, schedule: Q04DX003 (ip), vehicle: Klucel (hydroxypropylcellulose) (HPC)",0 of 6
CN(C)c1ccc2c(N(C)C)cc(N(C)C)nc2c1,T/C,[5],127 % of control [4 of 6 alive]
Cc1c(CCl)c(C)c(CCl)c(C)c1CCl,survivor count,[6],4 of 6
same,survivor count,[7],6 of 6
CC[C@@]1(O)C(=O)OCc2c1cc1n(c2=O)Cc2cc3ccccc3nc2-1,T/C,"dose: 1.6 mg/kg/injection, schedule: Q04DX003 (ip), vehicle: saline with Tween-80",138 % of control
same,survivor count,[8],6 of 6
same,survivor count,[9],6 of 6
same,survivor count,[10],0 of 6
same,survivor count,[1],0 of 6
O=C(NO)c1ccccc1,T/C,[2],127 % of control [4 of 6 alive]
same,T/C,[7],138 % of control
CCN=C(N)N=C(N)N,survivor count,"dose: 200.0 mg/kg/injection, schedule: Q01DX001 (ip), vehicle: saline",0 of 6
same,survivor count,"dose: 400.0 mg/kg/injection, schedule: Q01DX001 (ip), vehicle: saline",0 of 6
CC1CC(C)CC(C)C(O)/C(C#N)=C/C=C/CC(C2CCCC2C(=O)O)OC(=O)CC(O)C(C)C1 (centres undefined),T/C,"dose: 2.0 mg/kg/injection, schedule: Q01DX009 (ip), vehicle: Klucel (hydroxypropylcellulose) (HPC)",139 % of control
same,survivor count,"dose: 4.0 mg/kg/injection, schedule: Q01DX009 (ip), vehicle: Klucel (hydroxypropylcellulose) (HPC)",4 of 6
same,survivor count,"dose: 8.0 mg/kg/injection, schedule: Q01DX009 (ip), vehicle: Klucel (hydroxypropylcellulose) (HPC)",0 of 6
same,survivor count,"dose: 16.0 mg/kg/injection, schedule: Q01DX009 (ip), vehicle: Klucel (hydroxypropylcellulose) (HPC)",1 of 6
same,survivor count,"dose: 45.0 mg/kg/injection, schedule: Q01DX009 (ip), vehicle: Klucel (hydroxypropylcellulose) (HPC)",0 of 6
same,survivor count,"dose: 90.0 mg/kg/injection, schedule: Q01DX009 (ip), vehicle: Klucel (hydroxypropylcellulose) (HPC)",0 of 6
same,survivor count,"dose: 180.0 mg/kg/injection, schedule: Q01DX009 (ip), vehicle: Klucel (hydroxypropylcellulose) (HPC)",0 of 6
OCC1(c2ccccc2)CCN(Cc2ccccc2)CC1,survivor count,[2],2 of 6
same,survivor count,"dose: 400.0 mg/kg/injection, schedule: Q01DX009 (ip), vehicle: Klucel (hydroxypropylcellulose) (HPC)",0 of 6
same,survivor count,[7],5 of 6
O=C1CN(CN2CCCCC2)C(=O)CN1CN1CCCCC1,survivor count,[5],6 of 6
same,survivor count,[2],2 of 6
same,survivor count,"dose: 300.0 mg/kg/injection, schedule: Q01DX009 (ip), vehicle: Klucel (hydroxypropylcellulose) (HPC)",0 of 6
same,survivor count,[7],3 of 6
COc1ccc2c(Cl)cc(NC(=O)Nc3c(C)cccc3C)nc2c1,survivor count,[4],6 of 6
same,survivor count,"dose: 200.0 mg/kg/injection, schedule: Q01DX009 (ip), vehicle: saline with Tween-80",5 of 6
CCCCCCCCCCNc1ccc(NCCCCCCCCCC)cc1,survivor count,[2],5 of 6
same,T/C,[6],130 % of control
same,T/C,[7],145 % of control
COc1ccc(Nc2ccnc3cc(Cl)ccc23)cc1CN(CCCl)CCCl,T/C,"dose: 0.3 mg/kg/injection, schedule: Q01DX009 (ip), vehicle: saline",147 % of control
same,T/C,[11],134 % of control
same,survivor count,[11],6 of 6
same,T/C,"dose: 0.5 mg/kg/injection, schedule: Q04DX003 (ip), vehicle: saline",131 % of control
same,T/C,"dose: 0.63 mg/kg/injection, schedule: Q01DX009 (ip), vehicle: Klucel (hydroxypropylcellulose) (HPC)",129 % of control
same,T/C,"dose: 0.75 mg/kg/injection, schedule: Q04DX003 (ip), vehicle: saline",127 % of control
same,T/C,"dose: 0.78 mg/kg/injection, schedule: Q04DX003 (ip), vehicle: saline",127 % of control
same,T/C,"dose: 1.0 mg/kg/injection, schedule: Q01DX009 (ip), vehicle: saline",145 % of control
same,T/C,"dose: 1.0 mg/kg/injection, schedule: Q04DX003 (ip), vehicle: saline",127 % of control
same,T/C,"dose: 1.25 mg/kg/injection, schedule: Q01DX009 (ip), vehicle: Klucel (hydroxypropylcellulose) (HPC)",146 % of control
same,T/C,"dose: 1.56 mg/kg/injection, schedule: Q04DX003 (ip), vehicle: saline",145 % of control
same,T/C,"dose: 2.0 mg/kg/injection, schedule: Q01DX009 (ip), vehicle: saline",140 % of control
same,T/C,"dose: 2.0 mg/kg/injection, schedule: Q04DX003 (ip), vehicle: saline",145 % of control
same,survivor count,"dose: 2.5 mg/kg/injection, schedule: Q01DX009 (ip), vehicle: Klucel (hydroxypropylcellulose) (HPC)",6 of 6
same,T/C,"dose: 4.0 mg/kg/injection, schedule: Q04DX003 (ip), vehicle: saline",145 % of control
same,survivor count,"dose: 5.0 mg/kg/injection, schedule: Q01DX009 (ip), vehicle: Klucel (hydroxypropylcellulose) (HPC)",6 of 6
same,survivor count,[8],5 of 6
same,survivor count,"dose: 10.0 mg/kg/injection, schedule: Q01DX009 (ip), vehicle: Klucel (hydroxypropylcellulose) (HPC)",2 of 6
same,survivor count,[9],5 of 6
same,survivor count,[10],0 of 6
same,survivor count,"dose: 50.0 mg/kg/injection, schedule: Q04DX003 (ip), vehicle: saline sonified",5 of 6
same,survivor count,"dose: 100.0 mg/kg/injection, schedule: Q04DX003 (ip), vehicle: saline sonified",4 of 6
C=C(C)C(O)C(O)c1cc2ccc(=O)oc2cc1OC (centres undefined),survivor count,"dose: 35.0 mg/kg/injection, schedule: Q01DX009 (ip), vehicle: carboxymethylcellulose (CMC)",6 of 6
